# Measurements from PMC2225441, “Partial Restoration of Mutant Enzyme Homeostasis in Three Distinct Lysosomal Storage Disease Cell Lines by Altering Calcium Homeostasis” (PLoS Biology, 2008).
# Tested on: L444P GC
# Assay: intact cell GC activity assay in homozygous L444P GC patient-derived fibroblasts
# Type: cell-based, human
# Conditions: only the named compounds increased activity
smiles,measurement,value
COC(=O)C1=C(C)NC(C)=C(C(=O)OC)C1c1ccccc1[N+](=O)[O-] [nifedipine],"L444P GC activity, screen of VGCC blockers, ionotropic glutamate receptor inhibitors and other calcium channel blockers",only diltiazem and verapamil
